# Measured values: the supplement of paper PMC12819154, “High-throughput peptide-centric local stability assay extends protein–ligand identification to membrane proteins, tissues and bacteria” (Nature Structural & Molecular Biology, 2025)
# By UniProt entry, the sequences of proteins in these tests, tags left out. Where a name states a change or a piece, a line headed by the entry shows the natural chain unless it says otherwise.
# UniProt Q99426: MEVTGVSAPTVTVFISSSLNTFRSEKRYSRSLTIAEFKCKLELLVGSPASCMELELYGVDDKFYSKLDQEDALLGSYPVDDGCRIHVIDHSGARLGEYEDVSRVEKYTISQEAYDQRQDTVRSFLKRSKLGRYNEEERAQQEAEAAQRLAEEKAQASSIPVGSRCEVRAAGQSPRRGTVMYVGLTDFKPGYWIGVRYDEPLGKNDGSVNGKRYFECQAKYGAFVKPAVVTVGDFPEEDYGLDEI
# UniProt Q99755: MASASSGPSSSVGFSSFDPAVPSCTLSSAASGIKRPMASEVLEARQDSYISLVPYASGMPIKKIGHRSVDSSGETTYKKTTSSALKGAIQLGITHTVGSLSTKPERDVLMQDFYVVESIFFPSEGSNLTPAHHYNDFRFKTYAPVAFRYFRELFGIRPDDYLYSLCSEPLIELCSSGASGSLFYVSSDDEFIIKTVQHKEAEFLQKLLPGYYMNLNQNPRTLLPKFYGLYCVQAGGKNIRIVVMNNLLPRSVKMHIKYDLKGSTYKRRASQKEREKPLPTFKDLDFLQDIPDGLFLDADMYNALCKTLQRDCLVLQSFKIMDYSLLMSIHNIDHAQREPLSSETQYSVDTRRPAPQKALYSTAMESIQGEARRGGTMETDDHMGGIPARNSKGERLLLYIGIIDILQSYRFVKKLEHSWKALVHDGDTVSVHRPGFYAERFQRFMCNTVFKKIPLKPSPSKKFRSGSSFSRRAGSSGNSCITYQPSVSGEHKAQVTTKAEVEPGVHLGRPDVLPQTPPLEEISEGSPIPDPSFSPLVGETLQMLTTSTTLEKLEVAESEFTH
# UniProt Q99598: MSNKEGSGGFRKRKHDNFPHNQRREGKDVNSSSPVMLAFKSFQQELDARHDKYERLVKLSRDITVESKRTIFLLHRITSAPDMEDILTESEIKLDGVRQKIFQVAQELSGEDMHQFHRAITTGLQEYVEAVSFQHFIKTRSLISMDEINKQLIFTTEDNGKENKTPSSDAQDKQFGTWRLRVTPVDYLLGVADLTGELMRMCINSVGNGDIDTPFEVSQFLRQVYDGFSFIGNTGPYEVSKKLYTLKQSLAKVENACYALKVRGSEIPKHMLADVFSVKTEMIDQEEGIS
# UniProt Q99627: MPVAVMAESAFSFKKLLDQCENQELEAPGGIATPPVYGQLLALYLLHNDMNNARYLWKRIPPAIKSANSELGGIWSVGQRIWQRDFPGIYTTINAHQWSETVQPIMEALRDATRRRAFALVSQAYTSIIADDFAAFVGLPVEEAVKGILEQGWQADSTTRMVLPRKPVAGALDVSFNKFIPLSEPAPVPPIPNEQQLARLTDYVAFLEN
# UniProt Q99081: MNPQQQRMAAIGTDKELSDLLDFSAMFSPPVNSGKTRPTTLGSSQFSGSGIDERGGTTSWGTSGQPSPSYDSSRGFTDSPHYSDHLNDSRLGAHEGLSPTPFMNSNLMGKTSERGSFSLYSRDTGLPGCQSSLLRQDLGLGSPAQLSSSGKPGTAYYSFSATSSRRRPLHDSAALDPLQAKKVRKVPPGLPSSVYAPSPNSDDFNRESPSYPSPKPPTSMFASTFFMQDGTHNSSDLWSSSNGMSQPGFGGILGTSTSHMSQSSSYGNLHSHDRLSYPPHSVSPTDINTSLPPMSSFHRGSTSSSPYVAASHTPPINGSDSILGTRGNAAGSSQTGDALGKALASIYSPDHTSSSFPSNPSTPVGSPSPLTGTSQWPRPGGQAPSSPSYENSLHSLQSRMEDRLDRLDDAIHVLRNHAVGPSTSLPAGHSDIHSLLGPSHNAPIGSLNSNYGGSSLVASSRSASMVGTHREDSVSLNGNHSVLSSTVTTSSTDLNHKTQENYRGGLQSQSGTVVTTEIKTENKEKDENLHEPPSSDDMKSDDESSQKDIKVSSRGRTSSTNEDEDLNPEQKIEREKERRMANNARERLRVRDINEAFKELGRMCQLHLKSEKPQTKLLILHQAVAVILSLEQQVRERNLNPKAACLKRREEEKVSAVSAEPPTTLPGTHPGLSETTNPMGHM
# UniProt Q99967: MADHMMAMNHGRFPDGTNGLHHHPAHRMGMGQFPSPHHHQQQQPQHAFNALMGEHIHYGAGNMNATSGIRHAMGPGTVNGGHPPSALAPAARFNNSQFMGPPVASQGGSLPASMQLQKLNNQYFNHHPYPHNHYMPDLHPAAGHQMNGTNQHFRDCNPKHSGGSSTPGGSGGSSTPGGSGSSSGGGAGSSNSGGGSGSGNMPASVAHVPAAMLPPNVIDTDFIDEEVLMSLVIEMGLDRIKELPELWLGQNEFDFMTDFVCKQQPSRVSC
# UniProt Q9BU70: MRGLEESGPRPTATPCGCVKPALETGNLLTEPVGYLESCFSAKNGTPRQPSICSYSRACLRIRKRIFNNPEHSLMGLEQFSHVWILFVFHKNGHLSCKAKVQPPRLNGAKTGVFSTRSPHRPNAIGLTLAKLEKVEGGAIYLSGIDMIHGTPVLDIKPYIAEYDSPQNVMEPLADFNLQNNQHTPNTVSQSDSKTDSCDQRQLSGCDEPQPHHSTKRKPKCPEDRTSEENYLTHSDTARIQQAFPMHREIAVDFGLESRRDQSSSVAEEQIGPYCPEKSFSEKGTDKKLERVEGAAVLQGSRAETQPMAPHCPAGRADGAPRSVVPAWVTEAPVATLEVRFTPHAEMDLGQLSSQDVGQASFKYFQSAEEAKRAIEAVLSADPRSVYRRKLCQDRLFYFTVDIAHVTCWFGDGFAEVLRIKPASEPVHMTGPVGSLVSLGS
# UniProt Q9BQG2: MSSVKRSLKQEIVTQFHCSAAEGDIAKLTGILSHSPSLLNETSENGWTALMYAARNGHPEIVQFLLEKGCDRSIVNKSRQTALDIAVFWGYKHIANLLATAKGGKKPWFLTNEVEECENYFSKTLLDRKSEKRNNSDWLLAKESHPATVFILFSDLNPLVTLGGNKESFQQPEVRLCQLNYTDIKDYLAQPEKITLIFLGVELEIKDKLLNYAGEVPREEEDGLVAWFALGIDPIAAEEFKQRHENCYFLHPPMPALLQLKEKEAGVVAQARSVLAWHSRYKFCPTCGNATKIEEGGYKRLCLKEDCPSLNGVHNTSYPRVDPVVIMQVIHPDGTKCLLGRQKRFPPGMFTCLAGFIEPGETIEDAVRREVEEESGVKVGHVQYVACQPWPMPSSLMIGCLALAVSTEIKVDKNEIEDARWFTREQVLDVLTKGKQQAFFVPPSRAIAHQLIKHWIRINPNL
# UniProt Q99661: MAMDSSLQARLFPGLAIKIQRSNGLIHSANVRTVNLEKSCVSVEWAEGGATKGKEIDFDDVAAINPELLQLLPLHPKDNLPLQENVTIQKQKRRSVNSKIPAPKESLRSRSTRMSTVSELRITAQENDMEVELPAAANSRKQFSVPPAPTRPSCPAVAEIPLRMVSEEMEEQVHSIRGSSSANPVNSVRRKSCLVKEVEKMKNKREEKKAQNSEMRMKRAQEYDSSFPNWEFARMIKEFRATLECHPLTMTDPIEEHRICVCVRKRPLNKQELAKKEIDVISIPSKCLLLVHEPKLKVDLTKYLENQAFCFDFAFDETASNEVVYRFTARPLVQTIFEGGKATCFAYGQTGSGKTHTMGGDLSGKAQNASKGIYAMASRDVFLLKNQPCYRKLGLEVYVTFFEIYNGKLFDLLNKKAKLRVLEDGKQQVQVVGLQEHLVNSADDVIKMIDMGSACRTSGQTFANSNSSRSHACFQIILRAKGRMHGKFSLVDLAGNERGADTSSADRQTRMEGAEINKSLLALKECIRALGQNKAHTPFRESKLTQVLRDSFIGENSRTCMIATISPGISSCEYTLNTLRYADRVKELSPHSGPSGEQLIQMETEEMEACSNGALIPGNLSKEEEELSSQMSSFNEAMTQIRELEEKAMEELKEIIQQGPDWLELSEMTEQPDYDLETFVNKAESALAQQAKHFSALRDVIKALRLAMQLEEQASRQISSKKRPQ
# UniProt Q99909, whole entry: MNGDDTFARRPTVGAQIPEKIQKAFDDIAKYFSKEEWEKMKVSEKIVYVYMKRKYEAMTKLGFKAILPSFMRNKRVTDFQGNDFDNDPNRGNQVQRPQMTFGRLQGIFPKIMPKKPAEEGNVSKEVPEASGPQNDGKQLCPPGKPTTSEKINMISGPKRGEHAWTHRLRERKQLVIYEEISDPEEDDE
# UniProt Q9BTL4: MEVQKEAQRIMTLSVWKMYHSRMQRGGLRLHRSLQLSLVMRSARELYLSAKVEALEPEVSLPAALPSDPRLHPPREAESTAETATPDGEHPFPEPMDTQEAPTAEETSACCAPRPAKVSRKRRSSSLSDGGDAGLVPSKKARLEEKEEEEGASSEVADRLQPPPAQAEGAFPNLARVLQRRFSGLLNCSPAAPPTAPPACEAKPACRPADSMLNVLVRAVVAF
# UniProt Q9BSC4: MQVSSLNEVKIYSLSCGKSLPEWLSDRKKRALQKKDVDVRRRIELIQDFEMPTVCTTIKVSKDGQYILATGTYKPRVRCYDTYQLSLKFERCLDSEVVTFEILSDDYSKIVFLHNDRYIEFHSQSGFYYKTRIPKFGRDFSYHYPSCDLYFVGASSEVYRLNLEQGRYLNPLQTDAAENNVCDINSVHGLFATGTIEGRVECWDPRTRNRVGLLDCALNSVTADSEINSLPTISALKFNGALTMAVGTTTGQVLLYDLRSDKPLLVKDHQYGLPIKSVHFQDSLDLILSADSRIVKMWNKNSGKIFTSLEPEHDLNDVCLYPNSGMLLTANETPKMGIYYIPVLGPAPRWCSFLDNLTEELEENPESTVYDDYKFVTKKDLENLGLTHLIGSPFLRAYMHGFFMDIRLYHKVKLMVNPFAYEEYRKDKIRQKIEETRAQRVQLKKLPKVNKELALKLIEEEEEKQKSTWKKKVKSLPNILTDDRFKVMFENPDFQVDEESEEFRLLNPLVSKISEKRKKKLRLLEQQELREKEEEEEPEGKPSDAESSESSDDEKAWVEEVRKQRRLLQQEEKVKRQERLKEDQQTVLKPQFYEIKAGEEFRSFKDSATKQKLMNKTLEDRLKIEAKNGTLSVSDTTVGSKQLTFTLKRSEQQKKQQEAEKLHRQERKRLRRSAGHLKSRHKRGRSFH
# UniProt Q96S82: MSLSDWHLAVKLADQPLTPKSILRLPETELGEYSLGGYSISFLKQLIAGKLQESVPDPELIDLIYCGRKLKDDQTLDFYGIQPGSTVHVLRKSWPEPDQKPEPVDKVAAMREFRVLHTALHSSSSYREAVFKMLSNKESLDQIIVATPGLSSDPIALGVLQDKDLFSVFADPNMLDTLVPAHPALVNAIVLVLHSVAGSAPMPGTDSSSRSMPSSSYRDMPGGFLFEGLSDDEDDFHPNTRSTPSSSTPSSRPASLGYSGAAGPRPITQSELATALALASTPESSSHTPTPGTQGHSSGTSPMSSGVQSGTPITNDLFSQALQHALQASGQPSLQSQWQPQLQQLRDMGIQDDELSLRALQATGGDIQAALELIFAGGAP
# UniProt Q9BRR0: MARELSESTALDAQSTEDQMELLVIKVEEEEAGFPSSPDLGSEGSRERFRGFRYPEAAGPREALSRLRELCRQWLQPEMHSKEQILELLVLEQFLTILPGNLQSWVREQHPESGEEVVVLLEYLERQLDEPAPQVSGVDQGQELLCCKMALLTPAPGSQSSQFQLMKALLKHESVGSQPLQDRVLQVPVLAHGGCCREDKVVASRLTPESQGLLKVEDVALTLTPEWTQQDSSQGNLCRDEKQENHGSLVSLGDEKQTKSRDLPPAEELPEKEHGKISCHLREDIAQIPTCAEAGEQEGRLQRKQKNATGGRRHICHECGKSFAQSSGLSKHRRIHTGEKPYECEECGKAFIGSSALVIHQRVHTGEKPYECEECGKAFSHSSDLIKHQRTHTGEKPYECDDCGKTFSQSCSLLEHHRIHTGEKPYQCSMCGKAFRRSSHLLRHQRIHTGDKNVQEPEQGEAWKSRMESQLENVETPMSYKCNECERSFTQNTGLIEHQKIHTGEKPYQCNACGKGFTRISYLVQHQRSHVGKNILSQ
# UniProt Q9BUH6, whole entry: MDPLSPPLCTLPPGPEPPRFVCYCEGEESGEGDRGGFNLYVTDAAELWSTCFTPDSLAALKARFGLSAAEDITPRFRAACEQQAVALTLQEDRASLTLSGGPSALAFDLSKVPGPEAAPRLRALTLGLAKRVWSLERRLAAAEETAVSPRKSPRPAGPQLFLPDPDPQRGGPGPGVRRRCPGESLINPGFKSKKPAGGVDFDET
# UniProt Q99439: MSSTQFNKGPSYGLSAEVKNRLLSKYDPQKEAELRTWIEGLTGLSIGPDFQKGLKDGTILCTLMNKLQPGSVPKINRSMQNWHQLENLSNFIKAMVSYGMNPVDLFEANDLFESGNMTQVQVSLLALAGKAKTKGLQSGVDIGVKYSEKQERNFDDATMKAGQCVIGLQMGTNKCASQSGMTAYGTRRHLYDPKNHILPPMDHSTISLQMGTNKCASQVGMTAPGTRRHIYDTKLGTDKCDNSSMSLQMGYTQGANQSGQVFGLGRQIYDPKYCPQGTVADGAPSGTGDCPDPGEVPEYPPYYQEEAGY
# The list shows a part of the results. Most values lie at the level of the controls, where differences are scatter.
# Compound: Cc1nc(Nc2ncc(C(=O)Nc3c(C)cccc3Cl)s2)cc(N2CCN(CCO)CC2)n1 [dasatinib]
# Assay: log2 fold change of tryptic peptide abundance, ligand vs vehicle (limited proteolysis) (log2 ratio); higher = more trypsin-susceptible (destabilized)
# Details: ligand concentration: 5 uM; sample: K562 cleared lysate
row,Target,log2 fold change
1,"ARID3A (peptide sequence: LESAEPPEK, peptide start residue: 453) (UniProt Q99856)",-0.48
2,"TBCB (peptide sequence: SLTIAEFK, peptide start residue: 31) (UniProt Q99426)",-0.198
3,"UniProt Q9BQI3 (peptide sequence: SREVALEAQTSR, peptide start residue: 151)",0.204
4,"PIP5K1A (peptide sequence: FMCNTVFK, peptide start residue: 444) (UniProt Q99755)",0.244
5,"TSNAX (peptide sequence: TPSSDAQDK, peptide start residue: 165) (UniProt Q99598)",0.0977
6,"PSMB7 (peptide sequence: CEKGTTAVLTEK, peptide start residue: 247) (UniProt Q99436)",-1.26
7,"ACBD6 (peptide sequence: VGNCNTPKPSFFDFEGK, peptide start residue: 77) (UniProt Q9BR61)",0.378
8,"MAPKAP1 (peptide sequence: INAAHGFSLIQVDNTK, peptide start residue: 283) (UniProt Q9BPZ7)",0.123
9,"THUMPD2 (peptide sequence: SILQEMER, peptide start residue: 389) (UniProt Q9BTF0)",-0.26
10,"COPS8 (peptide sequence: KPVAGALDVSFNK, peptide start residue: 166) (UniProt Q99627)",0.0257
11,"TCF12 (peptide sequence: LDRLDDAIHVLR, peptide start residue: 404) (UniProt Q99081)",-0.183
12,"CITED2 (peptide sequence: FPDGTNGLHHHPAHR, peptide start residue: 13) (UniProt Q99967)",-0.215
13,"TRMO (peptide sequence: TSEENYLTHSDTAR, peptide start residue: 226) (UniProt Q9BU70)",0.74
14,"NUDT12 (peptide sequence: LLNYAGEVPR, peptide start residue: 209) (UniProt Q9BQG2)",0.298
15,"KIF2C (peptide sequence: LFDLLNKK, peptide start residue: 409) (UniProt Q99661)",-0.185
16,"UniProt Q96TA1 (peptide sequence: AAPEASSPPASPLQHLLPGK, peptide start residue: 686)",-0.122
17,"UniProt Q9BTE3 (peptide sequence: LQMTIENMNHLK, peptide start residue: 420)",-0.546
18,"UniProt Q99909 (peptide sequence: GNQVQRPQMTFGR, peptide start residue: 91)",0.525
19,"UniProt Q9BTL4 (peptide sequence: IMTLSVWK, peptide start residue: 10)",-0.0879
20,"NOL10 (peptide sequence: LIEEEEEK, peptide start residue: 457) (UniProt Q9BSC4)",0.197
21,"UBL7 (peptide sequence: SMPSSSYR, peptide start residue: 211) (UniProt Q96S82)",-0.143
22,"ZNF670 (peptide sequence: STYLGIHER, peptide start residue: 265) (UniProt Q9BS34)",-0.0808
23,"ZKSCAN3 (peptide sequence: QENHGSLVSLGDEK, peptide start residue: 243) (UniProt Q9BRR0)",0.117
24,"UniProt Q9BUH6 (peptide sequence: FGLSAAEDITPR, peptide start residue: 64)",0.0867
25,"CNN2 (peptide sequence: CASQVGMTAPGTRR, peptide start residue: 215) (UniProt Q99439)",-0.0942
26,"MYD88 (peptide sequence: LLDAWQGRPGASVGR, peptide start residue: 74) (UniProt Q99836)",-0.16

# Two entries drawn at random from those above, as already listed:
row,Target,log2 fold change
21,"UBL7 (peptide sequence: SMPSSSYR, peptide start residue: 211) (UniProt Q96S82)",-0.143
22,"ZNF670 (peptide sequence: STYLGIHER, peptide start residue: 265) (UniProt Q9BS34)",-0.0808
